Results taken from the supplement of paper PMC9233669.
Variants at the background level are over-represented here.

Tests used:
biotinyl-Trp-oxazolone = assay: self-aminoacylation, catalytic enhancement (BWO) (fold over background); higher = more active; k-Seq, kA / k0A0; sequences stand for … in GGGAAUGGAUCCACAUCUACGAAUUC…UUCACUGCAGACUUGACGAAGCUG
Summary of the method: (§1)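 Each biotinyl-aminoacyl-oxazolone, at 2–1250 μM, was incubated with mutagenized RNA pools (0.43 μM) carrying a 21-nt variable region. The 50 μL reactions contained HEPES/NaCl/KCl/MgCl2/CaCl2 buffer with 5% acetonitrile at pH 6.9–7.0 and ran for 90 minutes at room temperature. After streptavidin capture, RNA was measured by qPCR in triplicate and by Illumina sequencing, and catalytic enhancement was calculated as median kA over the uncatalyzed rate from a pseudo-first-order fit of per-sequence fraction reacted.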

biotinyl-Val-oxazolone = assay: self-aminoacylation, catalytic enhancement (BVO) (fold over background); higher = more active; k-Seq, kA / k0A0; sequences stand for … in GGGAAUGGAUCCACAUCUACGAAUUC…UUCACUGCAGACUUGACGAAGCUG
Summary of the method: as §1

biotinyl-Ile-oxazolone = assay: self-aminoacylation, catalytic enhancement (BIO) (fold over background); higher = more active; k-Seq, kA / k0A0; sequences stand for … in GGGAAUGGAUCCACAUCUACGAAUUC…UUCACUGCAGACUUGACGAAGCUG
Summary of the method: as §1

biotinyl-Met-oxazolone = assay: self-aminoacylation, catalytic enhancement (BMO) (fold over background); higher = more active; k-Seq, kA / k0A0; sequences stand for … in GGGAAUGGAUCCACAUCUACGAAUUC…UUCACUGCAGACUUGACGAAGCUG
Summary of the method: as §1

biotinyl-Leu-oxazolone = assay: self-aminoacylation, catalytic enhancement (BLO) (fold over background); higher = more active; k-Seq, kA / k0A0; sequences stand for … in GGGAAUGGAUCCACAUCUACGAAUUC…UUCACUGCAGACUUGACGAAGCUG
Summary of the method: as §1

Sequence | self-aminoacylation (biotinyl-Trp-oxazolone) | self-aminoacylation (biotinyl-Val-oxazolone) | self-aminoacylation (biotinyl-Ile-oxazolone) | self-aminoacylation (biotinyl-Met-oxazolone) | self-aminoacylation (biotinyl-Leu-oxazolone)
AUUGACCUAGGUCAUCGGGUU [Fam2.2 aminoacylation ribozyme variant] | 12.2 | 6.49 | 7.25 | 13.9 | 18.8
AUUGCCCUGGUCAGCGAGUGA [Fam2.1 aminoacylation ribozyme variant] | 6.28 | 3.76 | 3.29 | 5.91 | 5.65
CAACUUCAACCAAUCGGUCUG [Fam1A.1 aminoacylation ribozyme variant] | 33.2 | 1.61 | 1.37 | 1.67 | 2.41
CACCUUCAAACAAUCGGUCUG [Fam1A.1 aminoacylation ribozyme variant] | 43.9 | 1.63 | 1.78 | 1.77 | 2.61
CAGUUUGCUAAUAGUCGCUAG [Fam3.1 aminoacylation ribozyme variant] | 1.5 | 1.17 | 1.76 | 1.12 | 1.4
CCAAACUUCGAGCAAUCGGUC [Fam1B.1 aminoacylation ribozyme variant] | 1.34 | 1.55 | 1.47 | 1.47 | 1.45
CCACACCACAAGCAAUCGGUC [Fam1B.1 aminoacylation ribozyme variant] | 0.871 | 1.1 | 1.13 | 0.999 | 0.949
CCACACCUCAAGCAAUCAGUC [Fam1B.1 aminoacylation ribozyme variant] | 0.558 | 0.856 | 0.843 | 0.804 | 0.6
CCACACUGCAAGCAAUAGGUC [Fam1B.1 aminoacylation ribozyme variant] | 0.601 | 0.907 | 0.905 | 0.777 | 0.915
CCACACUUCAACCAAGCGGUC [Fam1B.1 aminoacylation ribozyme variant] | 0.613 | 1.08 | 0.95 | 0.914 | 0.761
CCACACUUCAAUCAAUCUGUC [Fam1B.1 aminoacylation ribozyme variant] | 0.342 | 0.58 | 0.425 | 0.429 | 0.343
CCACACUUCAAUCCAUCGGUC [Fam1B.1 aminoacylation ribozyme variant] | 0.553 | 0.91 | 0.801 | 0.824 | 0.676
CCACACUUCAGGCAAUCCGUC [Fam1B.1 aminoacylation ribozyme variant] | 1.24 | 1.59 | 1.46 | 1.27 | 1.38
